Source: PubChem BioAssay (EPA / NIEHS)
“And” between values parts separate entries of the source, which are not always exact repeats. Identical values can stand only once. Inconclusive means that the source gave no clear call. Such entries were picked first, then a sample of the others. A potency beside an inconclusive call is a rough fit, not a confirmed value. Some compounds were tested as several samples or in several runs, with calls that do not always agree. The source made the active and inactive calls. How the source made its calls: active means hit-call score of the fitted dose curve at least 0.9, where 1 is the maximum; inconclusive means response in the unintended direction; inactive means score below 0.9.

Test: TOX21_p53_BLA_p5_viability: Viability Assessment in the Tox21 HCT-116 p53 Agonism Beta-lactamase Assay, Phase 5 (AID 2283600)
Source text: TOX21_p53_BLA_p5 is a cell-based, single-readout assay that uses HCT116, a human intestinal cell line, […] in a 1536-well plate.TOX21_p53_BLA_p5_viability is an assay readout measuring cellular ATP content and detected with CellTiter-Glo Luciferase-coupled ATP quantitation.TOX21_p53_BLA_p5_viability used a type of viability reporter where loss-of-signal activity can be used to understand changes in the cell viability. Furthermore, this assay endpoint can be referred to as a secondary readout, because this assay has produced multiple assay endpoints where this one serves a viability function. To generalize the intended target to other relatable targets, this assay endpoint is annotated to the cell cycle intended target family, where the subfamily is cytotoxicity.
Thawing Method: Place 14 mL of pre-warmed thaw medium into a 15 mL of conical tub. Remove the vial of cells to be thawed from liquid nitrogen and thaw rapidly by placing at 37C in a water bath with gentle agitation for 1-2 minutes. Decontaminate the vial by wiping with 70% ethanol before opening in a biological safety cabinet. Transfer the vial contents drop-wise into 14 mL of thaw medium in a sterile 15-mL conical tub. Centrifuge cells at 900 rpm for 4 minutes and resuspend in thaw medium. Transfer contents to the T75 tissue culture flask containing Thaw Medium and place flask in a humidified 37C/5% CO2 incubator. Switch to growth medium at first passage.Propagation Method: Aspirate medium, rinse once in DPBS, add 0.25% Trypsin/EDTA and swirl to coat the cell evenly. Add an equal volume of Growth Medium to inactivate Trypsin after 2-3 minutes incubation at 37C. Centrifuge cells at 900 rpm for 4 minutes and resuspend in growth medium. Cell should be passage or fed at least twice a week.Assay Protocol: Harvest cells from culture in growth medium and resuspend in assay medium. 2.2 Dispense 4000 cells/5 uL/well into 1536-well black/clear bottom plates using a Multidrop dispenser. After the cells were incubated at 37C for 5 hours, 23 nL of compounds dissolved in DMSO were transferred to the assay plate by a PinTool resulting in a 217-fold dilution. Incubate the plates for 16 hours at 37C, 5% CO2. Add 1 uL of 6X LiveBLAzer FRET B/G (CCF4-AM) Substrate Mixture to each well using a BioRAPTR dispenser and incubate the plates at room temperature for 2 hours. Measure fluorescence intensity at 460 and 530 nm emission and 405 nm excitation by an Envision detector. Data is expressed as the ratio of 460nm/530nm emissions. Add 4 uL of Cell-titer Glo to each well using BioRAPTR and incubate the plates at room temperature for […]. For cell viability readout that measures cytotoxicity, 4 ul/well of CellTiter-Glo reagent was added into the assay plates using a Flying Reagent Dispenser. After 30 min incubation at room temperature, the luminescence intensity in the plates was measured using a ViewLux plate reader.

Row | SMILES | outcome | AC50
1 | CC1(C)NC(=O)N(c2ccc([N+](=O)[O-])c(C(F)(F)F)c2)C1=O | inactive | inconclusive: 0.000565 µM
2 | COc1ccc2[nH]cc(CCNC(C)=O)c2c1 | inactive | inconclusive: 23 µM
3 | c1ccc2ccccc2c1 | – | inconclusive: 46.1 µM and inconclusive: 23 µM
4 | CCCCC(CC)COC(=O)CCCCC(=O)OCc1ccccc1 (stereo not given) | inactive | –
5 | O=S(=O)(O)CC(O)CCl (stereo not given) | – | inconclusive: 46.1 µM
6 | COc1nc(C)nc(NC(=O)NS(=O)(=O)c2ccccc2OCCCl)n1 | – | inconclusive: 45.8 µM
7 | CC(C)CCCCCCc1ccc(O)cc1 | – | active: 37.2 µM
8 | CCOC(=O)CC(O)(CC(=O)OCC)C(=O)OCC | – | inconclusive: 9.63 µM
9 | CC(C)(N)CO | inactive | inconclusive: 45.9 µM
10 | C=C1[C@H]2CC[C@@H]3[C@H]2C(C)(C)CCC[C@]13C | – | inconclusive: 46.1 µM
11 | CC(C)=CCC/C(C)=C\C#N | inactive | –
12 | COC(=O)CC(=O)OC | inactive | inconclusive: 0.000118 µM
13 | COCC(C)O (stereo not given) | inactive | –
14 | CC(=O)Oc1c(C)c(C)c2c(c1C)CC[C@@](C)(CCC[C@H](C)CCC[C@H](C)CCCC(C)C)O2 | – | inconclusive: 46.1 µM and inconclusive: 23 µM
15 | CCCCCCCCCCCCOCCOS(=O)(=O)O | inactive | –
16 | CCCCCCCCCCCCCC(=O)O | inactive | inconclusive: 46.1 µM

Row | SMILES | outcome | AC50
17 | CCOC(=O)c1ccccc1 | – | inconclusive: 46.1 µM
18 | CC(C)c1cc(C(C)C)cc(C(C)C)c1 | – | inconclusive: 46.1 µM
19 | CN(C)c1ccc(C(=N)c2ccc(N(C)C)cc2)cc1 | – | inconclusive: 0.18 µM
20 | COC(=O)c1c(C)cc(O)c(C)c1O | inactive | –
21 | COCN(COC)c1nc(N(COC)COC)nc(N(COC)COC)n1 | inactive | inconclusive: 46.3 µM
22 | O=C1c2c(O)ccc(Nc3ccc(CCO)cc3)c2C(=O)c2c([N+](=O)[O-])ccc(O)c21 | – | inconclusive: 46.1 µM
23 | CCO[Si](CCCN=C=O)(OCC)OCC | – | inconclusive: 46.1 µM
24 | CC/C=C\CCOC(=O)CCCCC | – | inconclusive: 46.1 µM
25 | CCN(CC)c1ccc2c(-c3ccccc3C(=O)O)c3ccc(=[N+](CC)CC)cc-3oc2c1 | inactive | –
26 | CC(C)(O)C(=O)c1ccccc1 | inactive | –
27 | O=CCCCC=O | – | inconclusive: 44.7 µM and inconclusive: 23 µM
28 | CCCCCCOC(=O)CC | – | inconclusive: 0.000118 µM
29 | O=P(OC(CCl)CCl)(OC(CCl)CCl)OC(CCl)CCl | inactive | inconclusive: 45.9 µM
30 | CCn1c2ccccc2c2cc(N)ccc21 | inactive | inconclusive: 46.1 µM
31 | O=C(O)c1ccc2c(c1)nc(C(=O)NC1CCN(C3CC3)CC1)n2Cc1cc(-c2ccc(Cl)s2)on1 | inactive | –
32 | CCN=c1cc2oc3cc(NCC)c(C)cc3c(-c3ccccc3C(=O)OCC)c-2cc1C | – | active: 60.8 µM and active: 63.2 µM
